The target of test [1] is T1, laminin alpha 5 LG domain recombinant protein LAMA5_(3026–3482) (human) (UniProt O15230).
T1 sequence: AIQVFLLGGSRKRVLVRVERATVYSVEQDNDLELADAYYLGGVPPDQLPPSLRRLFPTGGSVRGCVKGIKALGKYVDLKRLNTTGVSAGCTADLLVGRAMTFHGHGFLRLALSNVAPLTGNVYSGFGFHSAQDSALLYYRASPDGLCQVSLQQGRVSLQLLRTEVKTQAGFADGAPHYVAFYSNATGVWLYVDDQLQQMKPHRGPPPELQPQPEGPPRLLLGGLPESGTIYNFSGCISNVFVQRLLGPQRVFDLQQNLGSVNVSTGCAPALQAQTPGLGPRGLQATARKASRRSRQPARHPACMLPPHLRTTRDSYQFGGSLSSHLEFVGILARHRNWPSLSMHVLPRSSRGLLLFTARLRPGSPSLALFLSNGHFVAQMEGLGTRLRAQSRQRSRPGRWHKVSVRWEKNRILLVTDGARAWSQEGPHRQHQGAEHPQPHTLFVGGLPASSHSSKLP
The test can be described thus: ELISA; plates coated with 1 μg/mL recombinant laminin LG domain; 1 μg/mL GF added; bound GF detected with an antibody for each GF; BSA-coated wells as control; both purified.

Chains of the proteins cited; added tags and fusions are not shown. Lines headed by an entry give the natural chain unless they say otherwise; changes in a name come on top. Residues count along the entry.
UniProt Q16363: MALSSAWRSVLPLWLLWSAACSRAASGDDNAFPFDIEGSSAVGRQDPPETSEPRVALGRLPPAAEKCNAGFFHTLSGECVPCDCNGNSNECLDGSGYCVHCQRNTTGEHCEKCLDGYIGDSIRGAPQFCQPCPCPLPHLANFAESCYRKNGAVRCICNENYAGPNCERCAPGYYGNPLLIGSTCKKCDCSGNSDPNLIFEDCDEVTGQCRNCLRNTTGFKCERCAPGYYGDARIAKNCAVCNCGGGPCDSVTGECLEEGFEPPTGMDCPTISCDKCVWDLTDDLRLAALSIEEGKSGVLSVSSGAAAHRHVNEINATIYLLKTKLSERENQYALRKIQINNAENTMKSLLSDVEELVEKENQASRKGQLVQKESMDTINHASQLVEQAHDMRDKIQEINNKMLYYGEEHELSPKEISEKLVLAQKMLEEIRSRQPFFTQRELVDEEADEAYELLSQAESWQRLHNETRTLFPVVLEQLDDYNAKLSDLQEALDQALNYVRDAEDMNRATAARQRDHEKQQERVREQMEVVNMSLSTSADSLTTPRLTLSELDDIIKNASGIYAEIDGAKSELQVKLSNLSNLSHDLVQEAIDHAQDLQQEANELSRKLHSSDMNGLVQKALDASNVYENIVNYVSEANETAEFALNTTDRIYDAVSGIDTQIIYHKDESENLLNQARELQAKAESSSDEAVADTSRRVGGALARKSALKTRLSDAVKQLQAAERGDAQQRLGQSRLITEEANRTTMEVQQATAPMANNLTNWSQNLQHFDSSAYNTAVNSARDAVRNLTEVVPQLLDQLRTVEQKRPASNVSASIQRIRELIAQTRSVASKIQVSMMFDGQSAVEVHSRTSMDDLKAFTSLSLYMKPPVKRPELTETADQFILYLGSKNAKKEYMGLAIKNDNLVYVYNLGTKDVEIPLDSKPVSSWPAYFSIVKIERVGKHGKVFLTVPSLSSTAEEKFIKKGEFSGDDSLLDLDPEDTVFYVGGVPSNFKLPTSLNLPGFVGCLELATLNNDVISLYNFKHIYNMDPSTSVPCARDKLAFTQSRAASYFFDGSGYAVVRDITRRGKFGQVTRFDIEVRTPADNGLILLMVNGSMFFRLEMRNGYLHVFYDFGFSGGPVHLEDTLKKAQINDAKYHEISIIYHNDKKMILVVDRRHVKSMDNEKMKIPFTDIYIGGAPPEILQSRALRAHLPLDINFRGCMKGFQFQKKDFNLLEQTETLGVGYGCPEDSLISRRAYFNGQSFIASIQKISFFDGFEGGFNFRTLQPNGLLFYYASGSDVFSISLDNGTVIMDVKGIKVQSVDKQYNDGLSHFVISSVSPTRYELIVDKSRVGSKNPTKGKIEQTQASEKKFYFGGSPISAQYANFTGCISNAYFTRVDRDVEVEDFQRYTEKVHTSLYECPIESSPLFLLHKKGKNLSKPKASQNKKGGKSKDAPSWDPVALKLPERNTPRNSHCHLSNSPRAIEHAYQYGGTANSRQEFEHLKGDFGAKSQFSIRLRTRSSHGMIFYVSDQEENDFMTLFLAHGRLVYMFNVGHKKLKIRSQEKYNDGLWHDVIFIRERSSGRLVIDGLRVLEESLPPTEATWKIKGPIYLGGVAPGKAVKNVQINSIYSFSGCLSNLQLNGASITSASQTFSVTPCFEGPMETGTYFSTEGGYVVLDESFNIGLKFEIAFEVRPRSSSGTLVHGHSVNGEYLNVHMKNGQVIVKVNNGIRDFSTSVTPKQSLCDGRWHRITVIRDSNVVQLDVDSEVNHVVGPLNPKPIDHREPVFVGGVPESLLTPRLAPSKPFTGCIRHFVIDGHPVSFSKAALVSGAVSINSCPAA
UniProt P09038, residues 143-288: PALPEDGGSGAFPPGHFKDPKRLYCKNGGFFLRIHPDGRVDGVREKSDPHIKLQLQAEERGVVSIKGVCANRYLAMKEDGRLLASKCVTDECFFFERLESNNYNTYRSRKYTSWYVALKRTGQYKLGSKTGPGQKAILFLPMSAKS
UniProt P01127, residues 82-190: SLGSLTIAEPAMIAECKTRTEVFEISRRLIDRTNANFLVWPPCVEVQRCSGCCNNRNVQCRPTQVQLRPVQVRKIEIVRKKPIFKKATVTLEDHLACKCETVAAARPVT

Test [2] has as its target T2, recombinant laminin LAMA3_(2928–3150) protein (human) (UniProt Q16787).
T2 sequence: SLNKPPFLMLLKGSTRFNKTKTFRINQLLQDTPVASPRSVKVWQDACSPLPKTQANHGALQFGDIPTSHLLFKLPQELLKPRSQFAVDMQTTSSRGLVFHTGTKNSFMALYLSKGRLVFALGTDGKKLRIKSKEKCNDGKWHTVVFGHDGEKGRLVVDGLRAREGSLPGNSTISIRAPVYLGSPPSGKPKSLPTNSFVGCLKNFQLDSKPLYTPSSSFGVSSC
The description is as above.

Test [3] deals with T3, laminin peptide LAMA3_(2932–2951) (human) (UniProt Q16787).
T3 sequence (peptide): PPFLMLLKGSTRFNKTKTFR
As to the kind of experiment: ELISA; plates coated with laminin peptide (10 µg/mL by the legend, 1 μg/mL by the methods); 1 μg/mL GF added; bound GF detected with an antibody for each GF; BSA-coated wells as control; both purified.

For test [4], the target named is T4, laminin peptide LAMA3_(3031–3043) (human) (UniProt Q16787).
T4 sequence (peptide): KNSFMALYLSKGR
Described as above.

Test [5] concerns the target T5, laminin peptide LAMA3_(3043–3067) (human) (UniProt Q16787).
T5 sequence (peptide): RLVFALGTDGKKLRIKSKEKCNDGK
The test is described as above.

The target of test [6] is T6, laminin peptide LAMA5_(3300–3330) (human) (UniProt O15230).
T6 sequence (peptide): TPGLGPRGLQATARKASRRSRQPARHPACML
The test is described as above.

For test [7], the target named is T7, laminin peptide LAMA5_(3312–3325) (human) (UniProt O15230).
T7 sequence (peptide): ARKASRRSRQPARH
Described as above.

Test [8] has as its target T8, laminin peptide LAMA5_(3417–3436) (human) (UniProt O15230).
T8 sequence (peptide): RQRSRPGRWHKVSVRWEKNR
The test is described as above.

Test [9] addresses T9, laminin peptide LAMA5_(3539–3550) (human) (UniProt O15230).
T9 sequence (peptide): TLPDVGLELEVR
The test is described as above.

Test [10] deals with laminin alpha 4 LG domain recombinant protein LAMA4_(826–1816) (human) (UniProt Q16363). As to the kind of experiment: ELISA; plates coated with 1 μg/mL recombinant laminin LG domain; 1 μg/mL GF added; bound GF detected with an antibody for each GF; BSA-coated wells as control; both purified.

No constants are given. Whether binding was seen depends on the method and setting. For some assays here: A result given as binding can be weak or reduced; the word gives no strength.

With VEGF-A121 (human) (ligand), the binding result in test [1], in [2], in [3], in [4], in test [5] and in [6] was “no binding (tested: 1 μg/mL)” in each case. For the same substance, the binding result in [7], in test [8] and in [9] was “no binding (tested: 1 μg/mL)” in each case.
In the case of “vascular endothelial cell growth factor VEGF-A165 (human) (ligand)”, the binding result in [1], in [2], in test [3], in test [4], in test [5] and in test [6] was “binds” each time. The values for the binding entry in test [7], in test [8] and in test [9] were “no binding (tested: 1 μg/mL)”, “binds” and “binds”, respectively.
On to “FGF-2 (from UniProt P09038 143-288) (ligand)”, for which the binding result in test [10] is “binds”.
Take “platelet-derived growth factor PDGF-BB (from UniProt P01127 82-190) (ligand)”: the binding result in test [10] was “binds”.
